The text below walks through data of article PMC11873123.

Assay [1] concerns the target T1, PPTC7, ectopically overexpressed (Fig. 1C, D) (UniProt Q8NI37).
T1 sequence: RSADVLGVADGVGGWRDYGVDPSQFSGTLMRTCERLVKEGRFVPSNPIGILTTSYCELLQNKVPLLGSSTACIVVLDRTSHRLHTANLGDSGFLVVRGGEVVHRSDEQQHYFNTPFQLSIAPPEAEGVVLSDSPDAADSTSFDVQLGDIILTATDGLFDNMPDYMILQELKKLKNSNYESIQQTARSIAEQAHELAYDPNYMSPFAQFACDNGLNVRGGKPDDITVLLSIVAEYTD
Description: co-IP; anti-FLAG antibody, 293T cells transfected with indicated plasmids, exogenous partners; Western blot (Fig. 1C, D). (In western blotting, separated proteins are transferred to a membrane and probed.)

The next assay deals with T2, PPTC7-WT-FLAG (UniProt Q8NI37).
T2 sequence: T1 sequence
Description: co-IP; anti-FLAG antibody, 293T cells transfected with a FLAG-tagged bait; endogenous partners detected by Western blot (Fig. 1E, F, 2K).

In the next assay the target is T3, FLAG-FBXL4 (UniProt Q9UKA2).
T3 sequence: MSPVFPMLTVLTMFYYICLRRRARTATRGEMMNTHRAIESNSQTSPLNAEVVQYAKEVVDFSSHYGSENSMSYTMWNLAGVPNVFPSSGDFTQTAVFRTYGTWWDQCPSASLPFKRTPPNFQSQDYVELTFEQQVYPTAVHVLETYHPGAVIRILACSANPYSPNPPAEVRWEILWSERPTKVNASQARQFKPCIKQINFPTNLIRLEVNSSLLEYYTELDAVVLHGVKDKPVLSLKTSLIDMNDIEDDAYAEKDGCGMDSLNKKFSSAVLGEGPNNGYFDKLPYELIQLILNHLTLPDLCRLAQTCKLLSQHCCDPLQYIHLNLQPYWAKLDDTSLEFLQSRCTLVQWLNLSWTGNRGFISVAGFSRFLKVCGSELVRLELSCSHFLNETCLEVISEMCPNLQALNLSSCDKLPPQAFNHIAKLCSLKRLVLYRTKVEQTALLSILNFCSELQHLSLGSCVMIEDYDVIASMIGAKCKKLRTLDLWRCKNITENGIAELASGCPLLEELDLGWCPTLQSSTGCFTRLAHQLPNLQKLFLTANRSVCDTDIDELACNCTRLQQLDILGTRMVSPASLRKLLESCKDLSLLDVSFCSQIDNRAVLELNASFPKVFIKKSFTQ
Described as above.

Results are given in words; binding and its absence hold for the method and conditions named. Binding seen in cells or lysates may run through a third protein. Some results given as binding are weak or reduced against the parent protein; the word gives no strength. For some of these results: Tags and fused reporters may be left off the sequences shown.

B1: NIPSNAP1 (protein, UniProt Q9BPW8 36-284)
chain: SKDNEGSWFRSLFVHKVDPRKDAHSTLLSKKETSNLYKIQFHNVKPEYLDAYNSLTEAVLPKLHLDEDYPCSLVGNWNTWYGEQDQAVHLWRFSGGYPALMDCMNKLKNNKEYLEFRRERSQMLLSRRNQLLLEFSFWNEPQPRMGPNIYELRTYKLKPGTMIEWGNNWARAIKYRQENQEAVGGFFSQIGELYVVHHLWAYKDLQSREETRNAAWRKRGWDENVYYTVPLVRHMESRIMIPLKISPLQ
For the molecule B1, the binding entry in assay [1] is reported as “no binding”.

B2: FBXL4, exogenous (Fig. 1D) (protein, UniProt Q9UKA2 1-621)
chain: T3 sequence
As to B2, in assay [1], the binding entry is given as “binds”.

B3: FBXL4, endogenous (protein, UniProt Q9UKA2 1-621)
chain: T3 sequence
With B3, in the assay with PPTC7-WT-FLAG, the binding entry is on record as “binds”.

B4: PPTC7, endogenous (protein, UniProt Q8NI37 69-304)
chain: T1 sequence
In the case of B4, the binding entry with FLAG-FBXL4 was “binds”.
